# Laboratory results as given in the supplement of paper PMC8728848.
# The list shows a part of the results.
# What was measured:
# Assay in all cases: glycan array binding signal (z-score within array); higher = stronger binding
# Settings in all cases: glycan notation: IUPAC condensed, linker removed
# Fuc(a1-2)Gal = target: Fuc(a1-2)Gal
# How it was run: (§1)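 The Consortium for Functional Glycomics database supplied 3228 glycan arrays, of which those lacking an available protein sequence were dropped. The binding signal, a within-array Z-score, was averaged across arrays of the same protein sequence and across linkers. Negative scores can be read as non-binding.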
# Fuc(a1-2)Gal(b1-3)GalNAc = target: Fuc(a1-2)Gal(b1-3)GalNAc
# How it was run: as §1
# [1] = target: Fuc(a1-2)Gal(b1-3)GalNAc(a1-3)[Fuc(a1-2)]Gal(b1-4)Glc
# How it was run: as §1
# [2] = target: Fuc(a1-2)Gal(b1-3)GalNAc(a1-3)[Fuc(a1-2)]Gal(b1-4)GlcNAc
# How it was run: as §1
# [3] = target: Fuc(a1-2)Gal(b1-3)GalNAc(b1-3)Gal
# How it was run: as §1
# [4] = target: Fuc(a1-2)Gal(b1-3)GalNAc(b1-3)Gal(a1-4)Gal(b1-4)Glc
# How it was run: as §1
# [5] = target: Fuc(a1-2)Gal(b1-3)GalNAc(b1-4)[Neu5Ac(a2-3)]Gal(b1-4)Glc
# How it was run: as §1
# Fuc(a1-2)Gal(b1-3)GlcNAc = target: Fuc(a1-2)Gal(b1-3)GlcNAc
# How it was run: as §1
# [6] = target: Fuc(a1-2)Gal(b1-3)GlcNAc(b1-2)Man(a1-3)[Fuc(a1-2)Gal(b1-3)GlcNAc(b1-2)Man(a1-6)]Man(b1-4)GlcNAc(b1-4)GlcNAc
# How it was run: as §1
# [7] = target: Fuc(a1-2)Gal(b1-3)GlcNAc(b1-3)Gal(b1-4)Glc
# How it was run: as §1
# [8] = target: Fuc(a1-2)Gal(b1-3)GlcNAc(b1-3)[Fuc(a1-3)[Gal(b1-4)]GlcNAc(b1-6)]Gal(b1-4)Glc
# How it was run: as §1
# [9] = target: Fuc(a1-2)Gal(b1-3)[Fuc(a1-4)]GlcNAc
# How it was run: as §1
# [10] = target: Fuc(a1-2)Gal(b1-3)[Fuc(a1-4)]GlcNAc(b1-2)Man(a1-3)[Fuc(a1-2)Gal(b1-3)[Fuc(a1-4)]GlcNAc(b1-2)Man(a1-6)]Man(b1-4)GlcNAc(b1-4)GlcNAc
# How it was run: as §1
# [11] = target: Fuc(a1-2)Gal(b1-3)[Fuc(a1-4)]GlcNAc(b1-3)[Fuc(a1-3)[Gal(b1-4)]GlcNAc(b1-6)]Gal(b1-4)Glc
# How it was run: as §1
# [12] = target: Fuc(a1-2)Gal(b1-3)[Fuc(a1-4)]GlcNAc(b1-3)[Gal(b1-4)GlcNAc(b1-6)]Gal(b1-4)Glc
# How it was run: as §1
# Fuc(a1-2)Gal(b1-4)Glc = target: Fuc(a1-2)Gal(b1-4)Glc
# How it was run: as §1
# Fuc(a1-2)Gal(b1-4)Glc6S = target: Fuc(a1-2)Gal(b1-4)Glc6S
# How it was run: as §1
# Fuc(a1-2)Gal(b1-4)GlcNAc = target: Fuc(a1-2)Gal(b1-4)GlcNAc
# How it was run: as §1
# [13] = target: Fuc(a1-2)Gal(b1-4)GlcNAc(b1-2)Man(a1-3)[Fuc(a1-2)Gal(b1-4)GlcNAc(b1-2)Man(a1-6)]Man(b1-4)GlcNAc(b1-4)GlcNAc
# How it was run: as §1
# [14] = target: Fuc(a1-2)Gal(b1-4)GlcNAc(b1-3)Gal(b1-4)GlcNAc
# How it was run: as §1
# [15] = target: Fuc(a1-2)Gal(b1-4)GlcNAc(b1-3)Gal(b1-4)GlcNAc(b1-3)Gal(b1-4)GlcNAc
# How it was run: as §1
# [16] = target: Fuc(a1-2)Gal(b1-4)GlcNAc(b1-3)GalNAc
# How it was run: as §1
# [17] = target: Fuc(a1-2)Gal(b1-4)GlcNAc6S
# How it was run: as §1
# [18] = target: Fuc(a1-2)Gal(b1-4)[Fuc(a1-3)]GlcNAc
# How it was run: as §1
# [19] = target: Fuc(a1-2)Gal(b1-4)[Fuc(a1-3)]GlcNAc(b1-2)Man(a1-3)[Fuc(a1-2)Gal(b1-4)[Fuc(a1-3)]GlcNAc(b1-2)Man(a1-6)]Man(b1-4)GlcNAc(b1-4)GlcNAc
# How it was run: as §1
# [20] = target: Fuc(a1-2)Gal(b1-4)[Fuc(a1-3)]GlcNAc(b1-3)Gal(b1-4)[Fuc(a1-3)]GlcNAc
# How it was run: as §1
# [21] = target: Fuc(a1-2)Gal(b1-4)[Fuc(a1-3)]GlcNAc(b1-3)Gal(b1-4)[Fuc(a1-3)]GlcNAc(b1-3)Gal(b1-4)[Fuc(a1-3)]GlcNAc
# How it was run: as §1
# Fuc(a1-2)Gal6S(b1-4)Glc = target: Fuc(a1-2)Gal6S(b1-4)Glc
# How it was run: as §1
# [22] = target: Fuc(a1-2)Gal6S(b1-4)Glc6S
# How it was run: as §1
# [23] = target: Fuc(a1-2)Gal6S(b1-4)GlcNAc
# How it was run: as §1
# Fuc(a1-2)[Gal(a1-3)]Gal = target: Fuc(a1-2)[Gal(a1-3)]Gal
# How it was run: as §1
# [24] = target: Fuc(a1-2)[Gal(a1-3)]Gal(b1-3)GlcNAc
# How it was run: as §1
# [25] = target: Fuc(a1-2)[Gal(a1-3)]Gal(b1-3)GlcNAc(b1-2)Man(a1-3)[Fuc(a1-2)[Gal(a1-3)]Gal(b1-3)GlcNAc(b1-2)Man(a1-6)]Man(b1-4)GlcNAc(b1-4)GlcNAc
# How it was run: as §1
# [26] = target: Fuc(a1-2)[Gal(a1-3)]Gal(b1-4)Glc
# How it was run: as §1
# [27] = target: Fuc(a1-2)[Gal(a1-3)]Gal(b1-4)GlcNAc
# How it was run: as §1
# [28] = target: Fuc(a1-2)[Gal(a1-3)]Gal(b1-4)GlcNAc(b1-2)Man(a1-3)[Fuc(a1-2)[Gal(a1-3)]Gal(b1-4)GlcNAc(b1-2)Man(a1-6)]Man(b1-4)GlcNAc(b1-4)GlcNAc
# How it was run: as §1
# [29] = target: Fuc(a1-2)[Gal(a1-3)]Gal(b1-4)[Fuc(a1-3)]GlcNAc
# How it was run: as §1
binder,measurement,setting,value
"PEB1 (Campylobacter jejuni), Q0P9X8 (protein) MVFRKSLLKLAVFALGACVAFSNANAAEGKLESIKSKGQLIVGVKNDVPHYALLDQATGEIKGFEVDVAKLLAKSILGDDKKIKLVAVNAKTRGPLLDNGSVDAVIATFTITPERKRIYNFSEPYYQDAIGLLVLKEKKYKSLADMKGANIGVAQAATTKKAIGEAAKKIGIDVKFSEFPDYPSIKAALDAKRVDAFSVDKSILLGYVDDKSEILPDSFEPQSYGIVTKKDDPAFAKYVDDFVKEHKNEIDALAKKWGL",glycan array binding signal (z-score),Fuc(a1-2)Gal,0.886
same,glycan array binding signal (z-score),Fuc(a1-2)Gal(b1-3)GalNAc,0.281
same,glycan array binding signal (z-score),[1],-0.113
same,glycan array binding signal (z-score),[2],-0.166
same,glycan array binding signal (z-score),[3],-1.64
same,glycan array binding signal (z-score),[4],-0.23
same,glycan array binding signal (z-score),[5],0.131
same,glycan array binding signal (z-score),Fuc(a1-2)Gal(b1-3)GlcNAc,0.973
same,glycan array binding signal (z-score),[6],0.653
same,glycan array binding signal (z-score),[7],0.624
same,glycan array binding signal (z-score),[8],-0.515
same,glycan array binding signal (z-score),[9],1.23
same,glycan array binding signal (z-score),[10],1.86
same,glycan array binding signal (z-score),[11],0.58
same,glycan array binding signal (z-score),[12],-0.116
same,glycan array binding signal (z-score),Fuc(a1-2)Gal(b1-4)Glc,-0.354
same,glycan array binding signal (z-score),Fuc(a1-2)Gal(b1-4)Glc6S,1.42
same,glycan array binding signal (z-score),Fuc(a1-2)Gal(b1-4)GlcNAc,0.143
same,glycan array binding signal (z-score),[13],-0.012
same,glycan array binding signal (z-score),[14],-0.874
same,glycan array binding signal (z-score),[15],2.36
same,glycan array binding signal (z-score),[16],0.452
same,glycan array binding signal (z-score),[17],-0.084
same,glycan array binding signal (z-score),[18],0.977
same,glycan array binding signal (z-score),[19],2.2
same,glycan array binding signal (z-score),[20],0.127
same,glycan array binding signal (z-score),[21],0.705
same,glycan array binding signal (z-score),Fuc(a1-2)Gal6S(b1-4)Glc,1.04
same,glycan array binding signal (z-score),[22],-0.038
same,glycan array binding signal (z-score),[23],0.768
same,glycan array binding signal (z-score),Fuc(a1-2)[Gal(a1-3)]Gal,-0.027
same,glycan array binding signal (z-score),[24],-0.148
same,glycan array binding signal (z-score),[25],-0.314
same,glycan array binding signal (z-score),[26],-0.633
same,glycan array binding signal (z-score),[27],-0.033
same,glycan array binding signal (z-score),[28],0.417
same,glycan array binding signal (z-score),[29],2.02
